In PubChem BioAssay AID328 (DTP/NCI, 2004):
The list does not hold the whole screen: it gathers tests that were run many times, whatever their T/C, doses with no T/C, and many T/C values between a quarter and a half above the control. Further doses and runs are listed elsewhere. T/C: endpoint of the treated group in % of that of the vehicle group. Some entries give survivors of the animals treated and no T/C: the source holds a T/C of zero for them, seemingly a mark for toxic or unscored doses. Some survivor counts are full or nearly so, which does not show that the dose was tolerated: survival well below the control is almost never listed, so the zero probably covers shortened survival too. Counts of survivors are from the toxicity check (mostly the fifth day) where no day follows; animals may have died later. Schedules are NCI's codes, taken here to give the interval after Q, in days (D) or hours (H), and the number of doses after X. Some entries were tested several times; their values stand side by side, smallest first. Where survival is the endpoint, this PubChem deposit counts one and a half times the control or more as active, and values a quarter to a half above the control carry no call in these data; other NCI protocols may use other cut-offs. Some T/C values are followed by the survivors on the day toxicity was checked, most often the fifth; without a count, all were alive then.

System: BDF1 mice, P388 leukemia ip, median survival T/C
Experiment: NCI In Vivo Anticancer Drug Screen. Data for tumor model P388 Leukemia (intraperitoneal) in B6D2F1 (BDF1) mice
Conditions: T/C endpoint: median survival time, higher T/C = longer survival
How it was run: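 Each value expresses how treatment altered survival: treated-mouse outcome over vehicle-mouse outcome, both groups bearing the transplanted tumour.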

[1] = dose: 25.0 mg/kg/injection, schedule: Q01DX009 (ip), vehicle: saline
[2] = dose: 200.0 mg/kg/injection, schedule: Q01DX009 (ip), vehicle: saline with Tween-80
[3] = dose: 400.0 mg/kg/injection, schedule: Q01DX009 (ip), vehicle: saline with Tween-80
[4] = dose: 100.0 mg/kg/injection, schedule: Q01DX009 (ip), vehicle: Klucel (hydroxypropylcellulose) (HPC)
[5] = dose: 200.0 mg/kg/injection, schedule: Q01DX009 (ip), vehicle: Klucel (hydroxypropylcellulose) (HPC)
[6] = dose: 25.0 mg/kg/injection, schedule: Q01DX009 (ip), vehicle: water
[7] = dose: 100.0 mg/kg/injection, schedule: Q01DX009 (ip), vehicle: water
[8] = dose: 200.0 mg/kg/injection, schedule: Q01DX009 (ip), vehicle: water
[9] = dose: 400.0 mg/kg/injection, schedule: Q01DX009 (ip), vehicle: water
[10] = dose: 12.5 mg/kg/injection, schedule: Q01DX009 (ip), vehicle: water
[11] = dose: 50.0 mg/kg/injection, schedule: Q01DX009 (ip), vehicle: water
[12] = dose: 100.0 mg/kg/injection, schedule: Q01DX009 (ip), vehicle: saline
[13] = dose: 80.0 mg/kg/injection, schedule: Q04DX003 (ip), vehicle: Klucel (hydroxypropylcellulose) (HPC)

## CCC(SC(CC(=O)O)C(=O)O)C(=O)O (stereo not drawn)
dose: 100.0 mg/kg/injection, schedule: Q01DX001 (ip), vehicle: saline with Tween-80
  survivor count: 2 of 6
dose: 200.0 mg/kg/injection, schedule: Q01DX001 (ip), vehicle: saline with Tween-80
  survivor count: 2 of 6
dose: 400.0 mg/kg/injection, schedule: Q01DX001 (ip), vehicle: saline with Tween-80
  survivor count: 0 of 6

## CCN(C(=O)CCl)C(C)(C)C(SSSC(c1ccc(Cl)cc1)C(C)(C)N(CC)C(=O)CCl)c1ccc(Cl)cc1 (stereo not drawn)
[1]
  T/C: 127 % of control

## CCC1CN1P(=O)(OCCC#N)N1CC1CC (stereo not drawn)
dose: 100.0 mg/kg/injection, schedule: Q01DX009 (ip), vehicle: saline with Tween-80
  survivor count: 6 of 6
[2]
  survivor count: 2 of 6
[3]
  survivor count: 0 of 6

## NCC(O)CSc1ccc(Cl)c(Cl)c1 (stereo not drawn)
dose: 200.0 mg/kg/injection, schedule: Q04DX002 (ip), vehicle: saline with Tween-80
  survivor count: 3 of 6

## CCCn1cnc2c(=S)nc(N)[nH]c21
[4]
  survivor count: 6 of 6
dose: 100.0 mg/kg/injection, schedule: Q04DX003 (ip), vehicle: Klucel (hydroxypropylcellulose) (HPC)
  T/C: 131 % of control
dose: 150.0 mg/kg/injection, schedule: Q04DX003 (ip), vehicle: Klucel (hydroxypropylcellulose) (HPC)
  survivor count: 6 of 6
[5]
  survivor count: 6 of 6
dose: 400.0 mg/kg/injection, schedule: Q04DX003 (ip), vehicle: Klucel (hydroxypropylcellulose) (HPC)
  survivor count: 6 of 6

## O=C(NC(Cc1ccccc1)C(=O)O)OCc1ccccc1 (stereo not drawn)
[2]
  T/C: 125 % of control
[3]
  T/C: 135 % of control

## CC(=O)Nc1cc(NC(C)=O)cc(N(CCO)CCO)c1
[6]
  survivor count: 6 of 6
[7]
  survivor count: 6 of 6
[8]
  survivor count: 6 of 6
[9]
  survivor count: 6 of 6

## NC1CCCCC1.[O]=[Cr](=[O])([OH])[OH]
[1]
  T/C: 127 % of control

## C[C@]12C=CC(=O)C=C1CC[C@H]1[C@@H]3C[C@@H](O)[C@](O)(C(=O)CO)[C@@]3(C)C[C@H](O)[C@@]12F
[4]
  T/C: 125 % of control
dose: 132.0 mg/kg/injection, schedule: Q01DX009 (ip), vehicle: Klucel (hydroxypropylcellulose) (HPC)
  survivor count: 6 of 6
[5]
  T/C: 125 % of control
  survivor count: 4 of 6
dose: 300.0 mg/kg/injection, schedule: Q01DX009 (ip), vehicle: Klucel (hydroxypropylcellulose) (HPC)
  survivor count: 2 of 6 and 3 of 6

## [Cl][Pt+2]([Cl])([Cl])[Cl].c1ccc(C2CC[N-]CC2)cc1.c1ccc(C2CC[N-]CC2)cc1
[10]
  T/C: 132 % of control
[11]
  T/C: 134 % of control [4 of 6 alive]
[7]
  survivor count: 4 of 6
[5]
  survivor count: 5 of 6
[8]
  survivor count: 2 of 6

## CCCCCCOP(=O)(N1CC1)N1CC1
[12]
  survivor count: 4 of 6
dose: 200.0 mg/kg/injection, schedule: Q04DX003 (ip), vehicle: saline with Tween-80
  survivor count: 4 of 6
dose: 400.0 mg/kg/injection, schedule: Q04DX003 (ip), vehicle: saline with Tween-80
  survivor count: 1 of 6

## COC(=O)C(Cc1cnc2nc(N)nc(N)c2n1)C(=O)OC
[11]
  T/C: 125 % of control

## O=C(O)CSC(CC(=O)O)C(F)(F)C(F)(F)C(F)(F)F (stereo not drawn)
dose: 100.0 mg/kg/injection, schedule: Q04DX003 (ip), vehicle: saline
  T/C: 133 % of control
dose: 200.0 mg/kg/injection, schedule: Q04DX003 (ip), vehicle: saline
  T/C: 127 % of control
dose: 400.0 mg/kg/injection, schedule: Q01DX009 (ip), vehicle: saline
  survivor count: 1 of 6

## O=c1ncc(F)cn1C1OC(CO)C(O)C1O (stereo not drawn)
dose: 100.0 mg/kg/injection, schedule: Q01DX005 (ip), vehicle: Klucel (hydroxypropylcellulose) (HPC)
  survivor count: 6 of 6
dose: 200.0 mg/kg/injection, schedule: Q01DX005 (ip), vehicle: Klucel (hydroxypropylcellulose) (HPC)
  survivor count: 6 of 6
dose: 400.0 mg/kg/injection, schedule: Q01DX005 (ip), vehicle: Klucel (hydroxypropylcellulose) (HPC)
  survivor count: 6 of 6
dose: 600.0 mg/kg/injection, schedule: Q01DX005 (ip), vehicle: Klucel (hydroxypropylcellulose) (HPC)
  survivor count: 4 of 6

## Cc1ccc([P+](CCN2C(=O)c3ccccc3C2=O)(c2ccc(C)cc2)c2ccc(C)cc2)cc1
dose: 0.78 mg/kg/injection, schedule: Q01DX009 (ip), vehicle: water
  T/C: 125 % of control
dose: 1.56 mg/kg/injection, schedule: Q01DX009 (ip), vehicle: water
  T/C: 129 % of control
dose: 3.13 mg/kg/injection, schedule: Q01DX009 (ip), vehicle: water
  T/C: 134 % of control
dose: 6.25 mg/kg/injection, schedule: Q01DX009 (ip), vehicle: water
  T/C: 134 % of control
[10]
  survivor count: 0 of 6
[6]
  survivor count: 0 of 6

## Cc1cc[n+](CCc2ccccc2)cc1
[12]
  survivor count: 0 of 6
dose: 150.0 mg/kg/injection, schedule: Q01DX010 (ip), vehicle: acetone
  survivor count: 0 of 6

## CC1=CCCC(C)(C)C1/C=C/C(C)=C/C(=O)O (stereo not drawn)
dose: 400.0 mg/kg/injection, schedule: Q01DX009 (ip), vehicle: Klucel (hydroxypropylcellulose) (HPC)
  survivor count: 6 of 6

## CCCCCCC(O)CCCCCC
dose: 400.0 mg/kg/injection, schedule: Q01DX009 (ip), vehicle: other
  survivor count: 3 of 6

## CCOC(=O)C(Cc1ccccc1Cl)(NC(C)=O)C(=O)OCC
[2]
  T/C: 136 % of control

## CCN(Cc1ccc(Cl)c(Cl)c1)c1ccc2nc(N)nc(N)c2c1C
dose: 3.12 mg/kg/injection, schedule: Q01DX009 (ip), vehicle: water
  T/C: 125 % of control
[6]
  survivor count: 5 of 6
dose: 25.0 mg/kg/injection, schedule: Q04DX003 (ip), vehicle: water
  T/C: 125 and 136 % of control
[11]
  survivor count: 4 of 6
[7]
  survivor count: 1 of 6
[8]
  survivor count: 2 of 6
dose: 200.0 mg/kg/injection, schedule: Q04DX003 (ip), vehicle: water
  survivor count: 5 of 6
[9]
  survivor count: 0 of 6

## COc1ccc2c(OC)c3ccoc3nc2c1OC
dose: 50.0 mg/kg/injection, schedule: Q01DX009 (ip), vehicle: Klucel (hydroxypropylcellulose) (HPC)
  survivor count: 6 of 6
[4]
  survivor count: 6 of 6
[5]
  survivor count: 6 of 6

## Cc1cc(NCCN(C(C)C)C(C)C)nc(/N=C(\N)Nc2ccc(Cl)c(C(F)(F)F)c2)n1
dose: 8.8 mg/kg/injection, schedule: Q04DX003 (ip), vehicle: Klucel (hydroxypropylcellulose) (HPC)
  T/C: 125 % of control
dose: 13.0 mg/kg/injection, schedule: Q04DX003 (ip), vehicle: Klucel (hydroxypropylcellulose) (HPC)
  T/C: 125 % of control
dose: 20.0 mg/kg/injection, schedule: Q04DX003 (ip), vehicle: Klucel (hydroxypropylcellulose) (HPC)
  T/C: 127 % of control
dose: 40.0 mg/kg/injection, schedule: Q01DX009 (ip), vehicle: Klucel (hydroxypropylcellulose) (HPC)
  survivor count: 0 of 6
dose: 40.0 mg/kg/injection, schedule: Q04DX003 (ip), vehicle: Klucel (hydroxypropylcellulose) (HPC)
  T/C: 131 % of control
dose: 60.0 mg/kg/injection, schedule: Q01DX009 (ip), vehicle: Klucel (hydroxypropylcellulose) (HPC)
  survivor count: 0 of 6
dose: 60.0 mg/kg/injection, schedule: Q04DX003 (ip), vehicle: Klucel (hydroxypropylcellulose) (HPC)
  survivor count: 6 of 6
[13]
  T/C: 127 % of control
  survivor count: 6 of 6
dose: 120.0 mg/kg/injection, schedule: Q04DX003 (ip), vehicle: Klucel (hydroxypropylcellulose) (HPC)
  survivor count: 6 of 6
